Results taken from PMC10213515.
Changes are numbered by the printed parent chain. No constants are given. Whether binding was seen depends on the method and setting. Some entries that bind do so weakly or less than the wild type.

Protein sequences, listed by entry. Tags and fused reporters are not part of them.
UniProt P0A9A6: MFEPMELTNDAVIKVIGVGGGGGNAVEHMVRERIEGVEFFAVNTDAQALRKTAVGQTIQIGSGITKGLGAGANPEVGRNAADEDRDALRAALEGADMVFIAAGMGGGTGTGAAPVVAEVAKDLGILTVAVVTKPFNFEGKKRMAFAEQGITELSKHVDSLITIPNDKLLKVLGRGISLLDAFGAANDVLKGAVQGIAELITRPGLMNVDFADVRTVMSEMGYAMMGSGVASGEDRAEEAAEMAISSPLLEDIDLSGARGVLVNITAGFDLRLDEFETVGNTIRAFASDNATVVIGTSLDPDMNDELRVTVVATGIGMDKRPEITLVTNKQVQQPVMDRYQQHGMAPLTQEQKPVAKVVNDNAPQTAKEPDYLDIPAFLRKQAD

Assays:
Assay in all cases: co-sedimentation; phospholipid recruitment assay: FtsZ (3 uM) with GTP (2 mM) added to FtsA wild type or mutant (2.5 uM) pre-assembled with SUVs (250 ug/ml) and ATP (4 mM); 10 min at 30 C; vesicles collected at 21,000 x g for 15 min; SDS-PAGE, coomassie, densitometry; both purified
[1] = target: T1, FtsA(S84L) (E. coli) (UniProt P0ABH0)
T1 sequence: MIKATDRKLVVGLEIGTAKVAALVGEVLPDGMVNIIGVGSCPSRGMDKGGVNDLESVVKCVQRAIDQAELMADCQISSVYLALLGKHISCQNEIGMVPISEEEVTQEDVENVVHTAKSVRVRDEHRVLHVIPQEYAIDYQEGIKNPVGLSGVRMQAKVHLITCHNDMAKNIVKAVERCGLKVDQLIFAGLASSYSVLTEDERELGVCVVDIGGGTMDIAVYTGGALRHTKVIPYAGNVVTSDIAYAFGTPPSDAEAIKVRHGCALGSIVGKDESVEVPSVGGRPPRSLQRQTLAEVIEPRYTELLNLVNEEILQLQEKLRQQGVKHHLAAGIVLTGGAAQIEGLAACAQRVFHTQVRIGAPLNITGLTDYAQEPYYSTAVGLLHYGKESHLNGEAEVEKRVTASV

[2] = target: T2, FtsA(E14R) (E. coli) (UniProt P0ABH0)
T2 sequence: T1 sequence with E14R, L84S

[3] = target: T3, FtsA(Y375A) (E. coli) (UniProt P0ABH0)
T3 sequence: T1 sequence with L84S, Y375A

[4] = target: T4, FtsA(A188V) (E. coli) (UniProt P0ABH0)
T4 sequence: T1 sequence with L84S, A188V

- binding [1]: binds
- binding [2]: binds
- binding [3]: binds
- binding [4]: binds
Substance: FtsZ (from UniProt P0A9A6 1-383)
